Measured values from US12129475B2, “Glycoalkaloid metabolism enyzymes (GAMES) and uses thereof” (priority 2017, dated 2024).
For part of these data: Some results come without the dose or concentration used.

Tests used:
[1] = system: GAME25-RNAi transgenic tomato lines; experiment: SGA levels by LC-MS in GAME25-RNAi (GAME25i) tomato lines compared to wild-type; assay type: in vivo, Solanum lycopersicum; conditions: for increase in level compared to wild-type leaves / reduction in level compared to wild-type leaves: GAME25-RNAi tomato leaves, lines #2, #3, #4; for increase in level compared to wild-type green fruit / reduction in level compared to wild-type green fruit / change in level compared to wild-type green fruit: GAME25i green fruit; for level in GAME25i breaker fruit / accumulation compared to wild-type breaker fruit: GAME25i breaker fruit
[2] = system: SlGAME31 downregulated tomato lines; experiment: SGA profiling by UPLC-qTOF-MS of red ripe fruit of SlGAME31-RNAi and SlGAME31-Cosup tomato lines; assay type: in vivo, Solanum lycopersicum; conditions: for increase in level relative to WT plants: SlGAME31-Cosup lines; for increase in level relative to WT plants / increase in level compared to wild-type (WT) plants: skin and flesh of red ripe fruit; for increase in level compared to wild-type (WT) plants / level compared to WT tomato fruit: SlGAME31-RNAi lines; for decrease in level compared to WT tomato fruit: SlGAME31-Cosup lines #7, #5, red ripe fruit; for level compared to WT tomato fruit: red ripe fruit
[3] = system: GAME25i S. pennellii transgenic lines; experiment: SGA levels in leaves of GAME25-silenced S. pennellii; assay type: in vivo, Solanum pennellii
GAME25-Ox potato plants = experiment: SGA levels by LC-MS in GAME25-Ox potato lines; assay type: in vivo, Solanum tuberosum; conditions: for change in level in leaves: GAME25-Ox potato leaves; for change in level in tuber skin: GAME25-Ox potato tuber skin tissue

For “dehydrotomatidine+4 hexose [dehyrotomatidine+4 hexose]”, the “increase in level compared to wild-type leaves” value (“increase … to wild-type leaves” for short) [1] was 6-9 fold and the “increase in level compared to wild-type green fruit” value (shortened to “increase … to wild-type green fruit”) [1] was 12-18 fold.

With dehydrotomatine isomer 1 the “increase … to wild-type leaves” value [1] was 9-11 fold.

For `C[C@H]1CC[C@]2(NC1)O[C@H]1C[C@H]3[C@@H]4CC[C@H]5C[C@@H](O[C@@H]6O[C@H](CO)[C@H](O[C@@H]7O[C@H](CO)[C@@H](O)[C@H](O[C@@H]8OC[C@@H](O)[C@H](O)[C@H]8O)[C@H]7O[C@@H]7O[C@H](CO)[C@@H](O)[C@H](O)[C@H]7O)[C@H](O)[C@H]6O)CC[C@]5(C)[C@H]4CC[C@]3(C)[C@H]1[C@@H]2C` [α-tomatine], the “increase in level relative to WT plants” value [2] was 340-520 fold, the “increase in level compared to wild-type (WT) plants” value [2] was 2.6-8.4 fold and the “level in GAME25-silenced red ripe fruit” value ([1]; GAME25-silenced red ripe fruit) was “not detected”. For the same compound, the “reduction in level compared to wild-type green fruit” value (shortened to “reduction … to wild-type green fruit”) [1] was 15-25 fold and the “change in level after GAME25 silencing” value [3] was “reduced”.

With `C[C@@H]1CNC2(O[C@H]3C[C@H]4[C@@H]5CC[C@H]6C[C@@H](O[C@@H]7O[C@H](CO)[C@H](O[C@@H]8O[C@H](CO)[C@@H](O)[C@H](O[C@@H]9OC[C@@H](O)[C@H](O)[C@H]9O)[C@H]8O[C@@H]8O[C@H](CO)[C@@H](O)[C@H](O)[C@H]8O)[C@H](O)[C@H]7O)CC[C@]6(C)[C@H]5CC[C@]4(C)[C@H]3[C@@H]2C)C(O)C1` (stereo partly drawn) [hydroxytomatine] the “decrease in level compared to WT tomato fruit” value [2] was 1.8-6 fold, the “level compared to WT tomato fruit” value [2] was “remained in similar levels” and the “reduction in level compared to wild-type leaves” value [1] was 6-10 fold. For the same compound, the “level in GAME25i breaker fruit” value [1] was “almost non-existent” and the “reduction … to wild-type green fruit” value [1] was about 100 fold.

In the case of hydroxy-dehydrotomatine, the “accumulation compared to wild-type breaker fruit” value [1] is reported as 20-30 fold and the “increase … to wild-type green fruit” value [1] is reported as about 25 fold.

In the case of `CC(=O)OC1C[C@H](C)CNC12O[C@H]1C[C@H]3[C@@H]4CC[C@H]5C[C@@H](O[C@@H]6O[C@H](CO)[C@H](O[C@@H]7O[C@H](CO)[C@@H](O)[C@H](O[C@@H]8OC[C@@H](O)[C@H](O)[C@H]8O)[C@H]7O[C@@H]7O[C@H](CO)[C@@H](O)[C@H](O)[C@H]7O)[C@H](O)[C@H]6O)CC[C@]5(C)[C@H]4CC[C@]3(C)[C@H]1[C@@H]2C` (stereo partly drawn) [acetoxytomatine], the “level in GAME25i breaker fruit” value [1] is reported as “almost non-existent”, the “reduction … to wild-type green fruit” value [1] is reported as about 30 fold and the “change in level after GAME25 silencing” value [3] is reported as “reduced”.

`C[C@H]1CC[C@@H]2[C@@H](C)[C@H]3[C@H](C[C@H]4[C@@H]5CC[C@H]6C[C@@H](O)CC[C@]6(C)[C@H]5CC[C@]34C)N2C1` [demissidine] was tested, and the “change in level in leaves” value (GAME25-Ox potato plants) was “not detected” and the “change in level in tuber skin” value (GAME25-Ox potato plants) was “no accumulation”.

In the case of acetoxy-dehydrotomatine, the “accumulation compared to wild-type breaker fruit” value [1] is reported as 7-15 fold, the “increase … to wild-type green fruit” value [1] is reported as 12-15 fold and the “change in level after GAME25 silencing” value [3] is reported as “enriched”.

In the case of `C[C@H]1CC[C@H]2[C@@H](C)[C@H]3[C@H](C[C@H]4[C@@H]5CC[C@H]6C[C@@H](O[C@@H]7O[C@H](CO)[C@H](O[C@@H]8O[C@H](CO)[C@@H](O)[C@H](O[C@@H]9OC[C@@H](O)[C@H](O)[C@H]9O)[C@H]8O[C@@H]8O[C@H](CO)[C@@H](O)[C@H](O)[C@H]8O)[C@H](O)[C@H]7O)CC[C@]6(C)[C@H]5CC[C@]34C)N2C1` [demissine], the “change in level in leaves” value (GAME25-Ox potato plants) is reported as “not detected” and the “change in level in tuber skin” value (GAME25-Ox potato plants) is reported as “no accumulation”.

For dehydrotomatine isomer (1 and 2), the “change in level compared to wild-type green fruit” value (“change … to wild-type green fruit” for short) [1] was “increased significantly”.

`C[C@H]1CC[C@@H]2[C@@H](C)[C@H]3[C@H](C[C@H]4[C@@H]5CC=C6C[C@@H](O[C@@H]7O[C@H](CO)[C@H](O)[C@H](O[C@@H]8O[C@H](CO)[C@@H](O)[C@H](O)[C@H]8O)[C@H]7O[C@@H]7O[C@@H](C)[C@H](O)[C@@H](O)[C@H]7O)CC[C@]6(C)[C@H]5CC[C@]34C)N2C1` [α-solanine] was tested, and the “change in level in leaves” value (GAME25-Ox potato plants) was “significant reduction” and the “change in level in tuber skin” value (GAME25-Ox potato plants) was “no major change”.

acetoxy-hydroxytomatine was tested, and the “level in GAME25i breaker fruit” value [1] was “almost non-existent” and the “reduction … to wild-type green fruit” value [1] was about 50 fold.

`C[C@H]1CC[C@]2(NC1)O[C@H]1C[C@H]3[C@@H]4CC=C5C[C@@H](O)CC[C@]5(C)[C@H]4CC[C@]3(C)[C@H]1[C@@H]2C` [dehydrotomatidine] was tested, and the “change in level compared to wild-type” value ([1]; GAME25i tomato lines, leaves) was “No significant accumulation”.

`C[C@H]1CC[C@@H]2[C@@H](C)[C@H]3[C@H](C[C@H]4[C@@H]5CC=C6C[C@@H](O[C@@H]7O[C@H](CO)[C@H](O[C@@H]8O[C@@H](C)[C@H](O)[C@@H](O)[C@H]8O)[C@H](O)[C@@H]7O[C@@H]7O[C@@H](C)[C@@H](O)[C@@H](O)[C@H]7O)CC[C@]6(C)[C@H]5CC[C@]34C)N2C1` [α-chaconine] was tested, and the “change in level in leaves” value (GAME25-Ox potato plants) was “significant reduction” and the “change in level in tuber skin” value (GAME25-Ox potato plants) was “no major change”.

With `CC(=O)O[C@H]1C[C@H](CO[C@@H]2O[C@H](CO)[C@@H](O)[C@H](O)[C@H]2O)CN[C@@]12O[C@H]1C[C@H]3[C@@H]4CC[C@H]5C[C@@H](O[C@@H]6O[C@H](CO)[C@H](O[C@@H]7O[C@H](CO)[C@@H](O)[C@H](O[C@@H]8OC[C@@H](O)[C@H](O)[C@H]8O)[C@H]7O[C@H]7O[C@H](CO)[C@@H](O)[C@H](O)[C@H]7O)[C@H](O)[C@H]6O)CC[C@]5(C)[C@H]4CC[C@]3(C)[C@H]1[C@H]2C` [esculeoside A] the “decrease in level compared to WT tomato fruit” value [2] was 4-29 fold, the “level compared to WT tomato fruit” value [2] was “remained in similar levels” and the “level in GAME25i breaker fruit” value [1] was “almost non-existent”.

With “α-tomatine isomer (1 and 2) [α-tomatine isomers (1 and 2)]” the “reduction in level compared to wild-type leaves” value [1] was 3-4 fold and the “change … to wild-type green fruit” value [1] was “drastic reduction”.

`C[C@H]1CC[C@]2(NC1)O[C@H]1C[C@H]3[C@@H]4CC=C5C[C@@H](O[C@@H]6O[C@H](CO)[C@H](O[C@@H]7O[C@H](CO)[C@@H](O)[C@H](O[C@@H]8OC[C@@H](O)[C@H](O)[C@H]8O)[C@H]7O[C@@H]7O[C@H](CO)[C@@H](O)[C@H](O)[C@H]7O)[C@H](O)[C@H]6O)CC[C@]5(C)[C@H]4CC[C@]3(C)[C@H]1[C@@H]2C` [dehydrotomatine] was tested, and the “increase in level relative to WT plants” value [2] was 105-177 fold, the “increase in level compared to wild-type (WT) plants” value [2] was 1.4-4.3 fold and the “increase … to wild-type leaves” value [1] was 4-6 fold. For the same compound, the “increase … to wild-type green fruit” value [1] was 10-12 fold and the “change in level after GAME25 silencing” value [3] was “enriched”.

In the case of tomatidine+4 hexose, the “change … to wild-type green fruit” value [1] is reported as “complete absence”.

For acetoxy-hydroxy-dehydrotomatine, the “increase … to wild-type green fruit” value [1] was 6-8 fold.
